The target in this experiment is AGO2 (human (endogenous in A549)) (UniProt Q9UKV8). The experiment in a line: co-IP.

Chains of the proteins cited; added tags and fusions are not shown.
UniProt Q9UKV8: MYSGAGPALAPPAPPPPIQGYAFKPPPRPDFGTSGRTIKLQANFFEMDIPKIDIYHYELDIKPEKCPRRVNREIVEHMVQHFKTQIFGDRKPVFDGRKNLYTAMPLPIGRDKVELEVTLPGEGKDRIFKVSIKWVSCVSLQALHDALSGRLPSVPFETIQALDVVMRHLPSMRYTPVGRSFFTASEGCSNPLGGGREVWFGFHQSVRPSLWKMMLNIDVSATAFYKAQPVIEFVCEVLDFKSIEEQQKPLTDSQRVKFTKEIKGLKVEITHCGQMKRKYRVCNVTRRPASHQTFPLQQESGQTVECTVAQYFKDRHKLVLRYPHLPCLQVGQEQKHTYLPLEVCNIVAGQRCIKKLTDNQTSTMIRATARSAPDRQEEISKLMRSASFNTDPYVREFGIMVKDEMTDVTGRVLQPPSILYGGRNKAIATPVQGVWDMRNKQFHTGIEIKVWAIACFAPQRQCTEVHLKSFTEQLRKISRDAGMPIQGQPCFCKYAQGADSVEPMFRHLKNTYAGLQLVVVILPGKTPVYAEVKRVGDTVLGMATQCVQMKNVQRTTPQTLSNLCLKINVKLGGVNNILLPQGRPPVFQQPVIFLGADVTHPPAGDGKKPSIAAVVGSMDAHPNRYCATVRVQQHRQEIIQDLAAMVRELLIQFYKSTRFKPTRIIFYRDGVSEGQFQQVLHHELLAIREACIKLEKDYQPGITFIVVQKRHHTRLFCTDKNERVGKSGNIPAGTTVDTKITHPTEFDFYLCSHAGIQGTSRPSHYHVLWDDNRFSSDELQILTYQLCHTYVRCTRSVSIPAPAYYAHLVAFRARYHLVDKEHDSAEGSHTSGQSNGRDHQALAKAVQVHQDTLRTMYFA

Results are given in words; binding and its absence hold for the method and conditions named. Binding seen in cells or lysates may run through a third protein.

B1: XRN2 (enzyme, UniProt Q9H0D6 1-950)
chain: MGVPAFFRWLSRKYPSIIVNCVEEKPKECNGVKIPVDASKPNPNDVEFDNLYLDMNGIIHPCTHPEDKPAPKNEDEMMVAIFEYIDRLFSIVRPRRLLYMAIDGVAPRAKMNQQRSRRFRASKEGMEAAVEKQRVREEILAKGGFLPPEEIKERFDSNCITPGTEFMDNLAKCLRYYIADRLNNDPGWKNLTVILSDASAPGEGEHKIMDYIRRQRAQPNHDPNTHHCLCGADADLIMLGLATHEPNFTIIREEFKPNKPKPCGLCNQFGHEVKDCEGLPREKKGKHDELADSLPCAEGEFIFLRLNVLREYLERELTMASLPFTFDVERSIDDWVFMCFFVGNDFLPHLPSLEIRENAIDRLVNIYKNVVHKTGGYLTESGYVNLQRVQMIMLAVGEVEDSIFKKRKDDEDSFRRRQKEKRKRMKRDQPAFTPSGILTPHALGSRNSPGSQVASNPRQAAYEMRMQNNSSPSISPNTSFTSDGSPSPLGGIKRKAEDSDSEPEPEDNVRLWEAGWKQRYYKNKFDVDAADEKFRRKVVQSYVEGLCWVLRYYYQGCASWKWYYPFHYAPFASDFEGIADMPSDFEKGTKPFKPLEQLMGVFPAASGNFLPPSWRKLMSDPDSSIIDFYPEDFAIDLNGKKYAWQGVALLPFVDERRLRAALEEVYPDLTPEETRRNSLGGDVLFVGKHHPLHDFILELYQTGSTEPVEVPPELCHGIQGKFSLDEEAILPDQIVCSPVPMLRDLTQNTVVSINFKDPQFAEDYIFKAVMLPGARKPAAVLKPSDWEKSSNGRQWKPQLGFNRDRRPVHLDQAAFRTLGHVMPRGSGTGIYSNAAPPPVTYQGNLYRPLLRGQAQIPKLMSNMRPQDSWRGPPPLFQQQRFDRGVGAEPLLPWNRMLQTQNAAFQPNQYQMLAGPGGYPPRRDDRGGRQGYPREGRKYPLPPPSGRYNWN
For the molecule B1, the binding entry is “no binding”.

The record behind these values is publication doi:10.1101/2021.08.20.457117.
